Laboratory results reported in article doi:10.1101/2020.09.28.317172.
These are yes or no findings as the source states them, for the method shown. Binding seen in cells or lysates may run through a third protein. Some binding calls cover weakened binding; strength is not graded here. For some of these results: Tags and fused reporters may be left off the sequences shown.

Chains of the proteins cited; added tags and fusions are not shown. Lines headed by an entry give the natural chain unless they say otherwise; changes in a name come on top. A line that says so, or that is headed by a name, gives the form on record, which may keep a tag or linker.
UniProt P08753: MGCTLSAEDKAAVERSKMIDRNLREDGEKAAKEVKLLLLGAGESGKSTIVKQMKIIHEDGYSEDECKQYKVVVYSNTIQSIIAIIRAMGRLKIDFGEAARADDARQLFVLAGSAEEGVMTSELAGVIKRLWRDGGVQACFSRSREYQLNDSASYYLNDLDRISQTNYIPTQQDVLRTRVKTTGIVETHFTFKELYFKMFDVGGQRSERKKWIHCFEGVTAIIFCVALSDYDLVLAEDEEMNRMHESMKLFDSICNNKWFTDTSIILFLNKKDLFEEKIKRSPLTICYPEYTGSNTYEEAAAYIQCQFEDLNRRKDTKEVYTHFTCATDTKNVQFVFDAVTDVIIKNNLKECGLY
myc-tagged human GIV F1685A mutant (Q3V6T2-3, form named): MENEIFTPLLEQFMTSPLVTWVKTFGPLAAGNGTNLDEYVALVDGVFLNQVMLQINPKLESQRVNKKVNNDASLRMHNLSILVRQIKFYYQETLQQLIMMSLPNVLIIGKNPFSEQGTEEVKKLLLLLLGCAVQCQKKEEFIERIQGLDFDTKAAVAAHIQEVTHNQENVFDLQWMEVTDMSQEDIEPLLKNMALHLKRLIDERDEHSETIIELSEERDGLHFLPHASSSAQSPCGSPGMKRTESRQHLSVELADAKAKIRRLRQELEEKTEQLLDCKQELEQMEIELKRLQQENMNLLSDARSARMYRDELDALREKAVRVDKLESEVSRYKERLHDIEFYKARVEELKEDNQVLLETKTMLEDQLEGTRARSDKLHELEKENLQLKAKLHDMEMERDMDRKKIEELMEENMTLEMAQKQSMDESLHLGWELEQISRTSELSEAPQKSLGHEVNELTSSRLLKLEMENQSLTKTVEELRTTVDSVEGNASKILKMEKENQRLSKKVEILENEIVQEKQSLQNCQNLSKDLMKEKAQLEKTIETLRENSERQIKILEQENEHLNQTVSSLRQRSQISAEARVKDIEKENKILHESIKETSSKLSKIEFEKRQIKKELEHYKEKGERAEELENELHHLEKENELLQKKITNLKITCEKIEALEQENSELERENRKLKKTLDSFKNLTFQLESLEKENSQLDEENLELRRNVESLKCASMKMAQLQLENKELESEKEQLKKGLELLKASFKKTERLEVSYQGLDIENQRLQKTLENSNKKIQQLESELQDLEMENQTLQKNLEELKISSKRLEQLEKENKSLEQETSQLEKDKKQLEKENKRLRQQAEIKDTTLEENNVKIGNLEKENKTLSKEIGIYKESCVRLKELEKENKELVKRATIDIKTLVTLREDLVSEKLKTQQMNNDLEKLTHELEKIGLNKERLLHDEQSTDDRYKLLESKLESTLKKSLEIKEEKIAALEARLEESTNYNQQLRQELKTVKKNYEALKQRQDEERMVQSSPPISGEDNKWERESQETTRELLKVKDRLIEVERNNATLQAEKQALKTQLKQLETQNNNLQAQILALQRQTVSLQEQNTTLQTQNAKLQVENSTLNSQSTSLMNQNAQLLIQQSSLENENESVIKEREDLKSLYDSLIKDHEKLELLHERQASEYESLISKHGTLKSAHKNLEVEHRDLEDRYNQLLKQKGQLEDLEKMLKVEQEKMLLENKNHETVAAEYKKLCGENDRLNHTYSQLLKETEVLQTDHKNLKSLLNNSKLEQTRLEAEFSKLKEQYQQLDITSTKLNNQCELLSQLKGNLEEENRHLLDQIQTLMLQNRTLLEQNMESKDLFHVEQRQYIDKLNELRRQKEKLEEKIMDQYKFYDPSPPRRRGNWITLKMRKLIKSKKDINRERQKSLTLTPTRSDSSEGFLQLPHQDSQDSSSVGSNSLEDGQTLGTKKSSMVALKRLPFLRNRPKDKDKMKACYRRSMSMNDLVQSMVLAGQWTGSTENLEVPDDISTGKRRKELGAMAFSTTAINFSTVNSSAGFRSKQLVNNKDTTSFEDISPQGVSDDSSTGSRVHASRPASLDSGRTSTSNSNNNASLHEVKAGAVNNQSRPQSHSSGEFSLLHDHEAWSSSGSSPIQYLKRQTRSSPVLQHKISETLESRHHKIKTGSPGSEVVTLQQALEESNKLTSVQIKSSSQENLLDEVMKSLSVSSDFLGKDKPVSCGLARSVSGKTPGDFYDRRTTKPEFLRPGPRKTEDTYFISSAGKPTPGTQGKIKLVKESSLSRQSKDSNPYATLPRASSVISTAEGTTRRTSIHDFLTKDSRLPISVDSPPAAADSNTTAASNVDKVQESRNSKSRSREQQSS
myc-tagged human GIV (wild type) (Q3V6T2-3, form named): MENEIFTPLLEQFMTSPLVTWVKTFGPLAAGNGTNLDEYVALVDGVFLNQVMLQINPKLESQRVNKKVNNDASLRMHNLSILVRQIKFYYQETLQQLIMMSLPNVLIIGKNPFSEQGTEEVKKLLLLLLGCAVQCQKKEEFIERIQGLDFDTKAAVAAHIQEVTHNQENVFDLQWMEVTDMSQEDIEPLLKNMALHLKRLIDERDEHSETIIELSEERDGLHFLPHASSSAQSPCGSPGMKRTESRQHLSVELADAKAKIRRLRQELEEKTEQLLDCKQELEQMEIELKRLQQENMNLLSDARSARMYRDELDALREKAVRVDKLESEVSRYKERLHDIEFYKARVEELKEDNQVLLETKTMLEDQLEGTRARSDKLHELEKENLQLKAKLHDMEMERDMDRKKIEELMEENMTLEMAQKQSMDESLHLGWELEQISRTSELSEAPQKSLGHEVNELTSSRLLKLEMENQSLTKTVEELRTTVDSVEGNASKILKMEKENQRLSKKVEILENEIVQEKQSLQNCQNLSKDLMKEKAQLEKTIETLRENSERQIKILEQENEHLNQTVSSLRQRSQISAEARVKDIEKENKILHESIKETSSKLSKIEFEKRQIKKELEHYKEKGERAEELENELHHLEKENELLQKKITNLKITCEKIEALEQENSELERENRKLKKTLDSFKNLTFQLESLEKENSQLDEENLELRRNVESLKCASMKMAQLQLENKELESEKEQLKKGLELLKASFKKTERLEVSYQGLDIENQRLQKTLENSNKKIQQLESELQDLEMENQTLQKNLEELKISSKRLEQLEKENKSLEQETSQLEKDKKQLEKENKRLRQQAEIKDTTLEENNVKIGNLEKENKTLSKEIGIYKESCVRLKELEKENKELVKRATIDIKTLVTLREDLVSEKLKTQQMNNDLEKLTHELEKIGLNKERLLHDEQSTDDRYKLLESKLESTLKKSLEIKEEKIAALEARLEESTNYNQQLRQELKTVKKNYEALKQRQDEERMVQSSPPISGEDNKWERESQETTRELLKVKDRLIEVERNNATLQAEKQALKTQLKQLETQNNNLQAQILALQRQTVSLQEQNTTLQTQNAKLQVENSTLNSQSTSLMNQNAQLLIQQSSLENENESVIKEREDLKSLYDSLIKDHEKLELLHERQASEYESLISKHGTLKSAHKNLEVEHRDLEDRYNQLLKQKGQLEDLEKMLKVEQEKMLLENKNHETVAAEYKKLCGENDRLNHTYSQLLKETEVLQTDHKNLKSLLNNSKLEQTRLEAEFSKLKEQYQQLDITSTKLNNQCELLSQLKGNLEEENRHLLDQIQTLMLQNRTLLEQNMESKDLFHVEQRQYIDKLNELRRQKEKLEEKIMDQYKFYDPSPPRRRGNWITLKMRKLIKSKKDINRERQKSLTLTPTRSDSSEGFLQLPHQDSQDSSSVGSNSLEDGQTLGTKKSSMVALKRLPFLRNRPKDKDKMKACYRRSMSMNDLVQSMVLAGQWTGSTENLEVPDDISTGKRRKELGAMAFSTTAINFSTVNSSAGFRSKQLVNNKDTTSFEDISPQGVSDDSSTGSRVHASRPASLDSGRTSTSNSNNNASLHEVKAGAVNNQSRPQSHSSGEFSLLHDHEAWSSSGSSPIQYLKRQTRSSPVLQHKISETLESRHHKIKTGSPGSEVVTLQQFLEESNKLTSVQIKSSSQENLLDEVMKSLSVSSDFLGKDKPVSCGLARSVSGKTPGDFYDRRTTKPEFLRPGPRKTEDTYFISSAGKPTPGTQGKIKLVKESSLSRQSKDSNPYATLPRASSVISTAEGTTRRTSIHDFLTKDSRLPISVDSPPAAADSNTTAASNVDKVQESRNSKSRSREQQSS

Assays:
[1] = target: GST-tagged Gαi3 (rat) (rat) (UniProt P08753); test: pull-down
[2] = target: FLAG-tagged Gαi3 (UniProt P08753); test: co-IP
[3] = target: myc-tagged human GIV (wild type) (human) (UniProt Q3V6T2); test: co-IP

binding [1]	binding [2]	binding [3]	Molecule
no binding			myc-tagged human GIV F1685A mutant (from UniProt Q3V6T2-3 1-1870)
binds	binds		myc-tagged human GIV (wild type) (from UniProt Q3V6T2-3 1-1870)
		no binding	untagged Dvl1 (protein, UniProt O14640 1-695) MAETKIIYHMDEEETPYLVKLPVAPERVTLADFKNVLSNRPVHAYKFFFKSMDQDFGVVKEEIFDDNAKLPCFNGRVVSWLVLAEGAHSDAGSQGTDSHTDLPPPLERTGGIGDSRPPSFHPNVASSRDGMDNETGTESMVSHRRERARRRNREEAARTNGHPRGDRRRDVGLPPDSASTALSSELESSSFVDSDEDGSTSRLSSSTEQSTSSRLIRKHKRRRRKQRLRQADRASSFSSITDSTMSLNIVTVTLNMERHHFLGISIVGQSNDRGDGGIYIGSIMKGGAVAADGRIEPGDMLLQVNDVNFENMSNDDAVRVLREIVSQTGPISLTVAKCWDPTPRSYFTVPRADPVRPIDPAAWLSHTAALTGALPRYGTSPCSSAVTRTSSSSLTSSVPGAPQLEEAPLTVKSDMSAVVRVMQLPDSGLEIRDRMWLKITIANAVIGADVVDWLYTHVEGFKERREARKYASSLLKHGFLRHTVNKITFSEQCYYVFGDLCSNLATLNLNSGSSGTSDQDTLAPLPHPAAPWPLGQGYPYQYPGPPPCFPPAYQDPGFSYGSGSTGSQQSEGSKSSGSTRSSRRAPGREKERRAAGAGGSGSESDHTAPSGVGSSWRERPAGQLSRGSSPRSQASATAPGLPPPHPTTKAYTVVGGPPGGPPVRELAAVPPELTGSRQSFQKAMGNPCEFFVDIM
